These are yes or no findings as the source states them, for the method shown. Some binding calls cover weakened binding; strength is not graded here.
Experiments:
Assay in all cases: peptide or protein array; HuProt human proteome microarray; 5 ug/5 ml biotin-labelled LUBAC or OTULIN in solution, 1 h at room temperature; Cy5-streptavidin, scanned at 635 nm; BSA as negative control; hits: Z-score >= 3 and I_(Mean_Ratio) >= 1.4; both purified
[1] = molecular target: T1, KCNAB1 (human) (UniProt Q14722)
T1 sequence: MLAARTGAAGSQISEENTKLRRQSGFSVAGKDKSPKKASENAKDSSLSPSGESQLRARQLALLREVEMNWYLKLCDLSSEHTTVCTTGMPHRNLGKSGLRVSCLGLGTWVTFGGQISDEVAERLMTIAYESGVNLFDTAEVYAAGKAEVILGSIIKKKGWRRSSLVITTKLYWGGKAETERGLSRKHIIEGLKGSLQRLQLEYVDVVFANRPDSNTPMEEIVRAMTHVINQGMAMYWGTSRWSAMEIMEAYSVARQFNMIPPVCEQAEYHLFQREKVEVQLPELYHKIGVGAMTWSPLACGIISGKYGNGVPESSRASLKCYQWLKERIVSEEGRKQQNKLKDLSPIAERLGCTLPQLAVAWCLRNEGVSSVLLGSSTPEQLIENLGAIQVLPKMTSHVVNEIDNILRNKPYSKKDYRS

Sequences of proteins named here, by UniProt entry; tags and fusion partners are left off.
UniProt P27361: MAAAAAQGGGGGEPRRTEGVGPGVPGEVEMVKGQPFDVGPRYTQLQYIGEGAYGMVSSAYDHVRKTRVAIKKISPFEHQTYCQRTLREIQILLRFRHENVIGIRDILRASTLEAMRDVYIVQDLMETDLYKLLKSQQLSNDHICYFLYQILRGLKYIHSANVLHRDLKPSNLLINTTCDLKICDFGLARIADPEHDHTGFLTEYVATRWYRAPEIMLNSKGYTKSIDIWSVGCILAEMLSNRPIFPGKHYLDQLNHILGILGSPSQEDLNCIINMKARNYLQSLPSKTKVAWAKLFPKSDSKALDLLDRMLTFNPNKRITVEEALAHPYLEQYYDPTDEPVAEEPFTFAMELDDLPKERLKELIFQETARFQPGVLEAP
UniProt P51148: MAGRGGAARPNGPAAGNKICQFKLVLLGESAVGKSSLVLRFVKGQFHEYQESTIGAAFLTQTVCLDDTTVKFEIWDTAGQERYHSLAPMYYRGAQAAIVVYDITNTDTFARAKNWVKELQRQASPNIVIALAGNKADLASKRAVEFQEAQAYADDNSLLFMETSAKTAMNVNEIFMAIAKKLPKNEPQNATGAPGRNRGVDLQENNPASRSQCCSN

[2] = molecular target: T2, PXK (human) (UniProt Q7Z7A4)
T2 sequence: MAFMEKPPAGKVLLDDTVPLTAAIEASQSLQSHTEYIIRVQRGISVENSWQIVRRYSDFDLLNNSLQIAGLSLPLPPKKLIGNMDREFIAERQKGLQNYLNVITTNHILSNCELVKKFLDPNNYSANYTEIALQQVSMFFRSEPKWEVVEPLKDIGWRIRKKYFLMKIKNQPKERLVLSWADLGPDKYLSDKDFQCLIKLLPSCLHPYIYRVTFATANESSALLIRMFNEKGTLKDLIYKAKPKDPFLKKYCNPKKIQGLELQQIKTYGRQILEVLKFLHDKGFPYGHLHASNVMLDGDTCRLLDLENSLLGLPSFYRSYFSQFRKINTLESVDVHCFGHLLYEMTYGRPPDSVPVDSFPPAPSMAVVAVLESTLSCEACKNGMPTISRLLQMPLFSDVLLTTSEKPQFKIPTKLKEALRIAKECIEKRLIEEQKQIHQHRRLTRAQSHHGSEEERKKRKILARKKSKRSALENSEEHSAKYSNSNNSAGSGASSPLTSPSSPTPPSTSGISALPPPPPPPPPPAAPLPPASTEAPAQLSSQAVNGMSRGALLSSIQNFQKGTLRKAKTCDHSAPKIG

[3] = molecular target: MAPK3 (human) (UniProt P27361)
[4] = molecular target: T3, PRAM1 (human) (UniProt Q96QH2)
T3 sequence: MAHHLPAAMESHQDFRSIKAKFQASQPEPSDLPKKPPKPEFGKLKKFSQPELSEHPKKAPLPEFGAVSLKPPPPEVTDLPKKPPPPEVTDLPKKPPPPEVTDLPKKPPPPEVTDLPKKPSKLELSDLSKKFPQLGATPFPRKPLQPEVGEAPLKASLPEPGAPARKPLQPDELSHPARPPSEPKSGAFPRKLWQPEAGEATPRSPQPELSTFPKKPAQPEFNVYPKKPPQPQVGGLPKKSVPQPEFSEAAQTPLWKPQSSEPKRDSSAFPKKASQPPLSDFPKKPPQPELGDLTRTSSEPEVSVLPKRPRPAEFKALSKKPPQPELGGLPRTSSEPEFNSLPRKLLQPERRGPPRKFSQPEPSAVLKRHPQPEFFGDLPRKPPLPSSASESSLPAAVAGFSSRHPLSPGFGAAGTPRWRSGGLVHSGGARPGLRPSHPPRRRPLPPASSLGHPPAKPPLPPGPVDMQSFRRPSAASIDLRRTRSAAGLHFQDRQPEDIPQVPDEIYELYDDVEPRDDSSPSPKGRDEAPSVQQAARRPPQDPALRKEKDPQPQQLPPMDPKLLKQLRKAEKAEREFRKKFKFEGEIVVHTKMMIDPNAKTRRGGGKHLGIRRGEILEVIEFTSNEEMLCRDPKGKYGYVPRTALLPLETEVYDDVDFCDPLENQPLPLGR

[5] = molecular target: RAB5C (human) (UniProt P51148)

Measured: binding

linear ubiquitin chain assembly complex (LUBAC), purified as HIS-tagged HOIP with the subunit HOIL-1, biotin-labelled (from UniProt Q96EP0 1-1072; Q9BYM8 1-510)
binds: all assays above

Reference: article PMC8274477
